Patent US20050220757A1
No constants are given. Whether binding was seen depends on the method and setting. Some entries that bind do so weakly or less than the wild type.

By UniProt entry, the sequences of proteins in these tests, tags left out. Where a name states a change or a piece, a line headed by the entry shows the natural chain unless it says otherwise. Residues count along the entry.
UniProt P13501, residues 24-91: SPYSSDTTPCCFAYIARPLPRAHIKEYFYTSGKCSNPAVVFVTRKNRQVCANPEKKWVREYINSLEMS

Each substance was assayed against T1, CCR1 (UniProt P32246) (assay: equilibrium competition SPA, [125I]-MIP-1α tracer, CHO membranes expressing CCR1).
T1 sequence (looked up): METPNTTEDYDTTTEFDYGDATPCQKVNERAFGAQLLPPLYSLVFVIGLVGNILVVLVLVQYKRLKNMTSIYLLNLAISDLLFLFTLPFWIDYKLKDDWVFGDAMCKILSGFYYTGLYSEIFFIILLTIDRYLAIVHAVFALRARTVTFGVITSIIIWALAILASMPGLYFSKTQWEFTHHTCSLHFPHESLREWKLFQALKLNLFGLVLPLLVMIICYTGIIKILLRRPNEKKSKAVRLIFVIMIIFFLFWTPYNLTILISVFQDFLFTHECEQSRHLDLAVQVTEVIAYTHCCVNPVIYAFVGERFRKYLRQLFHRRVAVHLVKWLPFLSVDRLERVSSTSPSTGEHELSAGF

Row | binding | Substance
1 | binds | RANTES G32K (from UniProt P13501 24-91) (ligand)
2 | binds | RANTES G32D (from UniProt P13501 24-91) (ligand)
3 | binds | RANTES G32N (from UniProt P13501 24-91) (ligand)
4 | binds | RANTES G32P (from UniProt P13501 24-91) (ligand)
5 | binds | RANTES (from UniProt P13501 24-91) (ligand)
